Reference: paper PMC12029333
These are yes or no findings as the source states them, for the method shown. In cells and extracts the contact can be indirect. A yes stands for co-enrichment or nearness to the bait. Other partners may have been found. Tags and fused reporters may be left off the sequences shown.

T1: GST-PrkC (Serine/threonine-protein kinase PrkC) (Bacillus subtilis str. 168) (UniProt O34507)
T1 sequence: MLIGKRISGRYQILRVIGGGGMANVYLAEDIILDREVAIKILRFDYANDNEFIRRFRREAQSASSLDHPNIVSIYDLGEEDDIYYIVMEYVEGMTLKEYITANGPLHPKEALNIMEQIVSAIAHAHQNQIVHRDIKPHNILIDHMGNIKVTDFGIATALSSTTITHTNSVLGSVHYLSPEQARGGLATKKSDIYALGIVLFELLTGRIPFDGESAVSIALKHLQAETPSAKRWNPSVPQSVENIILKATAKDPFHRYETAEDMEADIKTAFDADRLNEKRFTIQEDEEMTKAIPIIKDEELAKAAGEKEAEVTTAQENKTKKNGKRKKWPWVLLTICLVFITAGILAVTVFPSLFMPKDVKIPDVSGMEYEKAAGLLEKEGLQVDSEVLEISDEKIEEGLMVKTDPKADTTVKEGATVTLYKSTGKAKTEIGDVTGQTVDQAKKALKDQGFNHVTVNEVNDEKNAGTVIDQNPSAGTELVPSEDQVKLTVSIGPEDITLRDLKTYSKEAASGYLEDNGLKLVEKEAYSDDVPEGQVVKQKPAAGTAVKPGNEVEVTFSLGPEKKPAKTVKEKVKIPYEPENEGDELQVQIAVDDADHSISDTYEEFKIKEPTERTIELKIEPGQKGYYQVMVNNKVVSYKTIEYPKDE

B1: Uncharacterized transporter YxxF (protein, UniProt Q07835 1-311)
chain: MQQDPSISSKQKSTAVIKMVISMVIFGSIGFFSEHTNLPSFELVFVRCLCATLFLGFCWLASGQYKTEKWSKRDVLQTLACGFFLVFNWVFLFKSFEETSVTIAISVYHLAPVLVLLLGSFFYREKLNVISVSSIIICFLGTALISGINGSTSLTQLMGSGIIWAVLAALFYAFTTLLGKGIHNLSPYTTTFLQTGLGVIILIPFIHFGAFADLSQGNWIMVVSTGIIHTGIVYLLFFDSLRFLSTKFISIIVFLDPAVAIVLDTVFTGFRPDLYQTLGIVMIFAGMALTLVRRQGKANVTAEGTDIEQIQ
B2: NADH dehydrogenase-like protein YumB (protein, UniProt O05267 1-406)
chain: MALNKPKIVILGAGYGGLMTVTRLTKYVGPNDADITLVNKHNYHYETTWMHEASAGTLHHDRCRYQIKDVINQSRVNFVQDTVKAIKIDEKKVVLANGELQYDYLVIGLGAVPETFGIKGLKEYAFPIANINTSRLLREHIELQFATYNTEAEKRPDRLTIVVGGAGFTGIEFLGELAARVPELCKEYDVDRSLVRIICVEAAPTVLPGFDPELVDYAVHYLEENGVEFKIGTAVQECTPEGVRVGKKDEEPEQIKSQTVVWAAGVRGHPIVEEAGFENMRGRVKVNPDLRAPGHDNVFILGDSSLFMNEDTERPYPPTAQIAMQQGITVAKNLGRLIKGGELEEFKPDIKGTVASLGEHNAVGVVYGRKLKGTPASFMKKVIDNRSLFMIGGLGLTLKKGKFKFF
B3: Toxin YxiD (protein, UniProt P42296 1-569)
chain: MKTLDVHALHEGIQHTIEKLDKQKQQLEKLEKSVEHLAGMKDALKGKGGDAIRTFYEECHKPFLLFFGIFIDEYKKVLKQTQHAISSVESNSHGMIAEAFLSHDARHGVKHAREVTEQLTDAVNRQTSAIDHIVSLPTVNDSFFRMETEQAERLISDTLNKLFQFDGQQTQALEAAKSDFQTMKKYIDQLETMYTGPKIEITGYKSGSILKSQEEENINQIFGAINPQMKQADDSPMEMMLKKLAENEKSKVDSVVKTGDSKKVSKNIIVINGKVYNTSEHREHIKTDFSNAEVKQVVYNDTLYNVYISGNDMKLEPVVSLSDIKVDENGYVKILETAVELTGVYDLFKAATGRDPVSGEKVTGKDRVVASINSVPFAKIAKLEKLIDINKLINNGKKAKKASEVKNVAKDKGKIANDVSGSANKINSDLIKKYARDIEQRTGRELPKNQIDKLKEALRNKEYKKMSPIETAKHRTKFDKVKNKVIKEWEENTGQKWPVYKENVVSEKTGKIIRKKGDKYDAHHIIENTFGGEHEWWNMHPAKFPNEHQAGIHGTGSPANELFKGGKKK
B4: Exodeoxyribonuclease YycJ (protein, UniProt C0SP91 1-264)
chain: MSLQFSVLASGSTGNAFYLETEDHAFLVDAGLSGKAMDGLMAQIGRKLDDVDGIFVTHEHSDHIKGLGVVARKYKLPIYANEKTWKAMENQIGKIDTDQKFVFPMETVKSFGGLDVESFGVSHDAAEPMFYVFHYSGRKLALMTDTGYVSDRMKGIIRSANVFVFESNHDVGMLQMGRYPWSIKRRILSDVGHVSNEDAALAMTDVIGDETSRIYLAHLSQDNNMKELARMSVQQTLASKGFVTGETFDLYDTDPKKATPLCAV
B5: Uncharacterized protein YxiG (protein, UniProt P42299 1-138)
chain: MTMYQTINEWVDYIDKGCSVLHLDFNVFKKELSLDIKVFEDEGEYTHKISFQNVASAYYSADVGDMRLEKIDPEEYNWQVFEMSYHPEGIGNLSNSIIPEYQSNANFLIDMNRMLIAIEAETVRFDDQSFYAYQLNTK
B6: ESX secretion system protein YukB (protein, UniProt C0SPA7 1-1495)
chain: MSLLWVFYQNNVQKLNLSNLPSSHPVTIGPDVKDSVTISTIPFNSGVISLKRKESGGQYEVFLGNDCLGTIETDISFTLQTDQQDIRLILTGSEPEKSVYFTGNRDEIVCSSEKTNADIYLNPQDFAFAEQSTFSLLRAGGSWSVRPESGTIFLNGEKINANTPLKPGDEIFWNFTQMRVTEQDLLEIVHYAQFETALTETVKPSTEMQKKYPQYRRTPRMVYDLPDDRVSFSFPSQESDQTNRGLWLVILPPLVMLIVMGVVAIIQPRGIFILVSLAMFMMTLITSTVQYFRDKNQRKKREEKRERVYKLYLDNKRKELQALAEKQKQVLEFHFPSFEQMKYLTSEISDRIWEKSLESKDYLQLRLGTGTVPSSYEINMSGGDLANRDIDDLMEKSQHMQRVYKDIRNAPVTVDLAEGPMGLVGKSQIVKNEIHQLIGQLSFFNSYHDLRFVFIFHEEEYKDWEWMKWLPQFQMPHIYAKGFIYNEQTRDQLLSSLYELIRERDLEDDKEKLQFKPHFVFVITNQQLISEHVILEYLEGQHEHLGISTIVAAETKESLSENITTLVRYINEHEGDILIQKKKAVRIPFRLDHHQREDNERFSRTLRTLNHQVGITNSIPETVSFLELFHAKEVKEIGIQQRWLTSESSKSLSVPIGYKGKDDIVYLNLHEKAHGPHGLLAGTTGSGKSEFLQTYILSLAVHFHPHEAAFLLIDYKGGGMAQPFRNIPHLLGTITNIEGSKNFSMRALASIKSELKKRQRLFDQYQVNHINDYTKLYKQGKAEVAMPHLFLISDEFAELKSEEPDFIRELVSAARIGRSLGVHLILATQKPGGIIDDQIWSNSRFKVALKVQDATDSKEILKNSDAANITVTGRGYLQVGNNEVYELFQSAWSGAPYLEEVYGTEDEIAIVTDTGLIPLSEVDTEDNAKKDVQTEIEAVVDEIERIQDEMGIEKLPSPWLPPLAERIPRTLFPSNEKDHFHFAYVDEPDLQRQAPIAYKMMEDGNIGIFGSSGYGKSIAAATFLMSFADVYTPEELHVYIFDFGNGTLLPLAKLPHTADYFLMDQSRKIEKFMIRIKEEIDRRKRLFREKEISHIKMYNALSEEELPFIFITIDNFDIVKDEMHELESEFVQLSRDGQSLGIYFMLTATRVNAVRQSLLNNLKTKIVHYLMDQSEGYSIYGRPKFNLEPIPGRVIIQKEELYFAQMFLPVDADDDIGMFNELKSDVQKLQGRFASMEQPAPIPMLPESLSTRELSIRFKLERKPLSVPIGLHEETVSPVYFDLGKHKHCLILGQTQRGKTNVLKVMLEHLIDDETEMIGLFDSIDRGLSHYAKESDVSYLETKEDIEQWIETAEDIFKTREAMYVEAVRQGDAQNLRFSQVVLMIDGITRFQQTIDTRIQDRLANFMKSYAHLGFSFIPGGNHSEFSKGYDSLTTEMKQIRHAILLMKKSEQNVIPLPYQRQEPEIQPGFGYVVENGKEQKVQIPLCSAERESAR
B7: Putative NAD(P)H-dependent FMN-containing oxidoreductase YwqN (protein, UniProt P96726 1-181)
chain: MKIAVINGGTRSGGNTDVLAEKAVQGFDAEHIYLQKYPIQPIEDLRHAQGGFRPVQDDYDSIIERILQCHILIFATPIYWFGMSGTLKLFIDRWSQTLRDPRFPDFKQQMSVKQAYVIAVGGDNPKIKGLPLIQQFEHIFHFMGMSFKGYVLGEGNRPGDILRDHQALSAASRLLKRSDAI
B8: Spore coat protein I (protein, UniProt O34656 1-357)
chain: MCPLMAENHEVIEEGNSSELPLSAEDAKKLTELAENVLQGWDVQAEKIDVIQGNQMALVWKVHTDSGAVCLKRIHRPEKKALFSIFAQDYLAKKGMNVPGILPNKKGSLYSKHGSFLFVVYDWIEGRPFELTVKQDLEFIMKGLADFHTASVGYQPPNGVPIFTKLGRWPNHYTKRCKQMETWKLMAEAEKEDPFSQLYLQEIDGFIEDGLRIKDRLLQSTYVPWTEQLKKSPNLCHQDYGTGNTLLGENEQIWVIDLDTVSFDLPIRDLRKMIIPLLDTTGVWDDETFNVMLNAYESRAPLTEEQKQVMFIDMLFPYELYDVIREKYVRKSALPKEELESAFEYERIKANALRQLI
B9: HTH-type transcriptional repressor NagR (protein, UniProt O34817 1-243)
chain: MNINKQSPIPIYYQIMEQLKTQIKNGELQPDMPLPSEREYAEQFGISRMTVRQALSNLVNEGLLYRLKGRGTFVSKPKMEQALQGLTSFTEDMKSRGMTPGSRLIDYQLIDSTEELAAILGCGHPSSIHKITRVRLANDIPMAIESSHIPFELAGELNESHFQSSIYDHIERYNSIPISRAKQELEPSAATTEEANILGIQKGAPVLLIKRTTYLQNGTAFEHAKSVYRGDRYTFVHYMDRLS
B10: Sensor histidine kinase YxjM (protein, UniProt P55183 1-406)
chain: MNGQTPARHYYKKLVPSLILILNCIQFLSHPTKADPILLAFVFAVYLAFIWIIPYVASTAVSLSIFIGLWLLTDFFWAVSGQEQGAAYFLIVFLMIYAAFRLPSRLSLIFTACLIGGNILLLSSQGGSLNTIISNISIMLGLYVLFSSMRFRREARREAERNHAELAKMHVQLEHAHKELQKAHAELQEASVLSLRYAVLEERTRIARDIHDSIGHELTSVIVQLQSLPYILKSSKEDSEKVIQNVLSVARECLQEVRSVVHQMGRSESMVGLTALRGLIHQVEERSGLHVSLDTAGLSEESWPPNVSETIYRILQEALTNIIRHADASHAAAVISNDKSHLYVTITDDGQFTGSLTYGFGLTGMKERAEKAGGSLTFSAVQPSGLKIELSLPLMTTNKEQKDEQR

Target: T1, GST-PrkC (Serine/threonine-protein kinase PrkC) (Bacillus subtilis str. 168)
Experiment: affinity purification with mass spectrometry; GST-PrkC on glutathione resin incubated with B. subtilis spore lysate at 4 °C; resin washed; bound proteins eluted with 20 mM reduced glutathione; eluate digested with trypsin and analysed by LC-MS/MS; hits filtered at 1% FDR, >=2 unique peptides; only the target purified

Row | Binder | binding
1 | B1 | binds
2 | B2 | binds
3 | B3 | binds
4 | B4 | binds
5 | B5 | binds
6 | B6 | binds
7 | B7 | binds
8 | B8 | binds
9 | B9 | binds
10 | B10 | binds
